# Experimental data taken from paper PMC4826439.
# Sequences of proteins named here, by UniProt entry; tags and fusion partners are left off.
# UniProt Q9Z148: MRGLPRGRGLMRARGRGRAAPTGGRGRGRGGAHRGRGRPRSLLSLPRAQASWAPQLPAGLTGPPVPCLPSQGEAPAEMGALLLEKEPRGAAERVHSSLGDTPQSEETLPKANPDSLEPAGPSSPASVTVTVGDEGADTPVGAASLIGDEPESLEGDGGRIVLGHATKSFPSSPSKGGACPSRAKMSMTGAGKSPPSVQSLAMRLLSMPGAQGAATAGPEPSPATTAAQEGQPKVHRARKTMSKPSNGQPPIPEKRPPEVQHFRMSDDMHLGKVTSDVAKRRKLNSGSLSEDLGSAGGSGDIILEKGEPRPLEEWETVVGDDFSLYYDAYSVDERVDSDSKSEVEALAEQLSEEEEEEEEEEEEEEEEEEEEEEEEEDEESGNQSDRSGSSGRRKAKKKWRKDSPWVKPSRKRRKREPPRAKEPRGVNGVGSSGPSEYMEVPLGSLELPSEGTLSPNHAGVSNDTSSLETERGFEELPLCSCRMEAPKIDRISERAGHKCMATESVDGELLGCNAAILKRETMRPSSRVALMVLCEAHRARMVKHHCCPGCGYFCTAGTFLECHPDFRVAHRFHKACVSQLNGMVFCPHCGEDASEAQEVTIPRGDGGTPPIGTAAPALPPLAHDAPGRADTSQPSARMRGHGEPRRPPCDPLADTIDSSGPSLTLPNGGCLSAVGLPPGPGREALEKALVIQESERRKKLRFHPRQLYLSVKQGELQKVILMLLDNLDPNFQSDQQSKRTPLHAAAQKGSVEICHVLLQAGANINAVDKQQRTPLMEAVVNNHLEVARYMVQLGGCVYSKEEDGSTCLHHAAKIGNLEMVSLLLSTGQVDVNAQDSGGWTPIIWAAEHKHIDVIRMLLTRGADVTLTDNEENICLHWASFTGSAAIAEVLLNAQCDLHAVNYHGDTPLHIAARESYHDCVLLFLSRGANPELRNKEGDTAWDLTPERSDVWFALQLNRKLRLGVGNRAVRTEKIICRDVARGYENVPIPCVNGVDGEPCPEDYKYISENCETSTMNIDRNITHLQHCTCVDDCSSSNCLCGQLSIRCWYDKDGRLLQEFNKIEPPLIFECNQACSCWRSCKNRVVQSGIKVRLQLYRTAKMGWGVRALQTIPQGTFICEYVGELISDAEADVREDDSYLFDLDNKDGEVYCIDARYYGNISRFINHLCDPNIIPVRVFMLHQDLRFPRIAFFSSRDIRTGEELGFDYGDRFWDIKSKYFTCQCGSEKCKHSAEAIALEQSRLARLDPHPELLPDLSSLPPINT
# UniProt P13864: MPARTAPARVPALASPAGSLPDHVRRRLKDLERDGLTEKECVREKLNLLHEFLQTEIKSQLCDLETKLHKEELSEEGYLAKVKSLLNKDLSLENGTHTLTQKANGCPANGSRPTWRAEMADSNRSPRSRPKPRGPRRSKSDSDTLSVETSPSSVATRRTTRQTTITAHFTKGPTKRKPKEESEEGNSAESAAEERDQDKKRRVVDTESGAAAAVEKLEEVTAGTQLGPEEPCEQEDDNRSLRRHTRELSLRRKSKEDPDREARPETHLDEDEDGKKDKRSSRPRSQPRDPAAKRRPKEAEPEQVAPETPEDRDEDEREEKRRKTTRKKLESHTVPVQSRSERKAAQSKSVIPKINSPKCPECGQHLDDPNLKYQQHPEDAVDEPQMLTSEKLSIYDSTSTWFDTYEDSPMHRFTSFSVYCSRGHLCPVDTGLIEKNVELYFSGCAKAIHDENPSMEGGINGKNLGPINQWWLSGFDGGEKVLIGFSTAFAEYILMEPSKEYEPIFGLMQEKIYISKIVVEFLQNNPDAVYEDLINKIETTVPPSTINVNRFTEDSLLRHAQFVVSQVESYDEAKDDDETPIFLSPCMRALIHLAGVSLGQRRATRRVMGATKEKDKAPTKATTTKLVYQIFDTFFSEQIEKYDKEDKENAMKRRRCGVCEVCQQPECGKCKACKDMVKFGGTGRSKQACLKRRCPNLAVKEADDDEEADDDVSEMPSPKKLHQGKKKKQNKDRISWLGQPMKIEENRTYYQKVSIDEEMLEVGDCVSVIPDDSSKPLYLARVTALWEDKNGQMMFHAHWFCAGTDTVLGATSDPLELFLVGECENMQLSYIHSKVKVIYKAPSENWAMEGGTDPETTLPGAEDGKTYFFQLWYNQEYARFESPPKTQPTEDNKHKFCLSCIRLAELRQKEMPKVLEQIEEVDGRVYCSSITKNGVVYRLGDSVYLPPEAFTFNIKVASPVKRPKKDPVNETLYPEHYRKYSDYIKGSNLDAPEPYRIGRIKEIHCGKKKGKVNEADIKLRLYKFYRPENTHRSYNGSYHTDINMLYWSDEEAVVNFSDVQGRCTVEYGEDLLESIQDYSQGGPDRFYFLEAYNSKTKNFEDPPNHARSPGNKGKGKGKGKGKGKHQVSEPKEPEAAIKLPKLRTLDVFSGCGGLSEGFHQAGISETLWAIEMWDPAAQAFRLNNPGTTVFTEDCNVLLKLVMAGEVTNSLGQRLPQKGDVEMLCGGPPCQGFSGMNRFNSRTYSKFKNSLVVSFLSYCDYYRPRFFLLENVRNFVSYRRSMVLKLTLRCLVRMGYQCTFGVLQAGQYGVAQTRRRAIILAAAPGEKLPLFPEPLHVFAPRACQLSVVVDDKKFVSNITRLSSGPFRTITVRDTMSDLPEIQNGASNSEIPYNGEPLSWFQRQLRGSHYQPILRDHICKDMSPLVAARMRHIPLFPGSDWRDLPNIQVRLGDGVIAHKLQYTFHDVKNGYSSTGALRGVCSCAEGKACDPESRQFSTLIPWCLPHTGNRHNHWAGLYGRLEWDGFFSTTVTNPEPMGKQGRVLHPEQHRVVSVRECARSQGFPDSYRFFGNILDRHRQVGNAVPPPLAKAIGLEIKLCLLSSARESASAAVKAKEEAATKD
# UniProt Q9CWR8: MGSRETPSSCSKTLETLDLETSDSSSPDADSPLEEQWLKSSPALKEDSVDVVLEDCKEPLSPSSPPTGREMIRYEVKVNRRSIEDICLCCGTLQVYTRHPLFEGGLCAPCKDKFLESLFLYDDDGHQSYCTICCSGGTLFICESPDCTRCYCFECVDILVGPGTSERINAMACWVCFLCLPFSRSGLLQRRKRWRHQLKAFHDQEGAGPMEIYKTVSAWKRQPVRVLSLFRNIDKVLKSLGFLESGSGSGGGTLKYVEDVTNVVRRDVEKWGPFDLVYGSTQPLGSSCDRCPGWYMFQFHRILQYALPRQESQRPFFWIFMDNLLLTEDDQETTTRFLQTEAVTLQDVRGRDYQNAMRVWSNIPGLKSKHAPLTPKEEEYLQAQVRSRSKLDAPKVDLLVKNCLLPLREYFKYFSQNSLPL
# Results are given in words; binding and its absence hold for the method and conditions named. In cells and extracts the contact can be indirect. Here binding means that the protein was enriched with, or labelled near, the bait; the list need not be complete. No binding means not detected with the bait.
# Molecular target: G9a (EHMT2), histone H3 lysine 9 methylase (mouse) (UniProt Q9Z148)
# Experiment: affinity purification with mass spectrometry; G9a complex purified from ESCs, co-purifying proteins identified by mass spectrometry
row,Substance,binding
1,DNMT1 (from UniProt P13864 1-1620),no binding
2,DNMT3B (from UniProt O88509 1-859),binds
3,DNMT3L (from UniProt Q9CWR8 1-421),binds
